Results are given in words; binding and its absence hold for the method and conditions named. In cells and extracts the contact can be indirect. Binding calls can cover weak binding; strength is not graded here.

The chains behind the UniProt entries cited, without tags or fusion partners. Where a name states a change or a piece, a line headed by the entry shows the natural chain unless it says otherwise.
UniProt Q13404: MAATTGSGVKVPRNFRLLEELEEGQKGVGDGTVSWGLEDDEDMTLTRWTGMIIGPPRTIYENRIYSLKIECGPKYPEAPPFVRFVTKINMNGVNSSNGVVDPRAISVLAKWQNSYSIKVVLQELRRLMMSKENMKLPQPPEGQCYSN
UniProt P61088: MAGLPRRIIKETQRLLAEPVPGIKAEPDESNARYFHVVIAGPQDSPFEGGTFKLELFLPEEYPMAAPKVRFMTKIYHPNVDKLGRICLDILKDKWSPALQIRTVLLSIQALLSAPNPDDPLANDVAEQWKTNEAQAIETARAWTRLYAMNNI

For one substance, binding results are on record in paper PMC4223564.

The target of this test is Uev1A (ubiquitin-conjugating enzyme variant 1A), HA-tagged (human) (UniProt Q13404). As to the kind of experiment: co-IP; MDA-MB-231 cell extracts expressing HA-tagged UEV1A or UEV1A-F38E, immunoprecipitated with an anti-HA monoclonal antibody and Protein-G beads, 4°C overnight, washed 4 times with cold NP40 lysis buffer; western blot with anti-Ubc13 and anti-HA monoclonal antibodies.

On to “Ubc13 (from UniProt P61088 1-152) (enzyme)”, for which the binding result is “binds”.
